Source: patent US20020028487A1
These are yes or no findings as the source states them, for the method shown. For some of these results: In cells and extracts the contact can be indirect. Some entries that bind do so weakly or less than the wild type.

Amino acid sequences for entries named in this document (tags omitted). A change or cut given only in a name is not applied to a line headed by its entry.
UniProt P04386: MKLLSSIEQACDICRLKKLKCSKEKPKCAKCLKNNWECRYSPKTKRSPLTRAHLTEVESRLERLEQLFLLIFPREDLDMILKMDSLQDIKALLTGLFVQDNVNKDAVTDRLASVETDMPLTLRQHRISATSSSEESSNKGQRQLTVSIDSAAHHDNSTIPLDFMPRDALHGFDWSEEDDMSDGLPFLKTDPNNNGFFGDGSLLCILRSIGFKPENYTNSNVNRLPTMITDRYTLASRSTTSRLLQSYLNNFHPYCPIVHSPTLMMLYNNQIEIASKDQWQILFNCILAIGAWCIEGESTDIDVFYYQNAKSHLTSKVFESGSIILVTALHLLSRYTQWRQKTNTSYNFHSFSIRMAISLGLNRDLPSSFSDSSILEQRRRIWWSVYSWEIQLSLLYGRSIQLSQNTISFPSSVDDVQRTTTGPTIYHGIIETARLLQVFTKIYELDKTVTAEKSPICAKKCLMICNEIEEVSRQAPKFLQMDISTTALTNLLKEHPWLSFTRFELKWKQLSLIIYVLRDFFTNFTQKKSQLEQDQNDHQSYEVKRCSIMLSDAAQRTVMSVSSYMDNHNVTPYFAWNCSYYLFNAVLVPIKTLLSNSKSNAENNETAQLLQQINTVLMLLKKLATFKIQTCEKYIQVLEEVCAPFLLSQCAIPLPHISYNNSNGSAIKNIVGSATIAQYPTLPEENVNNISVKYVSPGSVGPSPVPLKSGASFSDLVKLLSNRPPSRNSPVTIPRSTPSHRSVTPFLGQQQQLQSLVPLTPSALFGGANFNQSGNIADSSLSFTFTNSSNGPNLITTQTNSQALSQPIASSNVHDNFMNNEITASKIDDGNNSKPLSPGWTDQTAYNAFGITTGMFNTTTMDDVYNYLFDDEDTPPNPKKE
UniProt P0A7C2: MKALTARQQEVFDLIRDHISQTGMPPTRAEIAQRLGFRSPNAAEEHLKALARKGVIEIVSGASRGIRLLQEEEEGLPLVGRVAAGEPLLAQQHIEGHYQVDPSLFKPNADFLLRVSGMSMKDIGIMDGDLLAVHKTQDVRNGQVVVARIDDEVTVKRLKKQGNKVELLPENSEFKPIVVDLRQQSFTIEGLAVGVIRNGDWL
UniProt P20226: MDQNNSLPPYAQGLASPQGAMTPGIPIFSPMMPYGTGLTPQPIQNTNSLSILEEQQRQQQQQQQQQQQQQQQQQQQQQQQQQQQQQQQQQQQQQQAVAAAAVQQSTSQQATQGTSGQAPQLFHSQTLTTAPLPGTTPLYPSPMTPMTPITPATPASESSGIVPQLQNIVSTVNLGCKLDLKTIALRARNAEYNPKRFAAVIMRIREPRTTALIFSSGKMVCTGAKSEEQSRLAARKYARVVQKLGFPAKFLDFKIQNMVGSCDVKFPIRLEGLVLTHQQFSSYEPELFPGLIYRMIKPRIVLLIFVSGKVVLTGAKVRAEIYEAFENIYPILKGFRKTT

Columns and labels:
[1] = molecular target: T1, VP16-JMY^469-558 (mouse) (UniProt Q9QXM1); test: mammalian two-hybrid assay in U2OS cells
T1 sequence: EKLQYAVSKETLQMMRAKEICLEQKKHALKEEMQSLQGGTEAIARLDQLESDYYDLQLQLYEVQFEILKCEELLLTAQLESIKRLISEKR

[2] = molecular target: T1, VP16-JMY^469-558 (mouse); test: yeast two-hybrid, β-galactosidase induction; prey VP16-JMY^469-558
[3] = molecular target: GST-JMY 1-117 (mouse) (UniProt Q9QXM1); test: GST pull-down of in vitro translated, labelled protein with 2 µg GST-JMY portion
[4] = molecular target: GST-JMY 1-504 (mouse) (UniProt Q9QXM1); test: as above

G4-p300^611-2283 (from UniProt P04386 1-147; Q09472 611-2283)
binding [1]: binds

LexA-p300^611-2283 (from UniProt P0A7C2 1-202; Q09472 611-2283)
binding [2]: binds

TATA-box-binding protein TBP (from UniProt P20226 1-339)
binding [3]: binds
binding [4]: binds
